Data source: PubChem BioAssay AID1224828 (NIAID, 2016)
Here is a random part of about 17,000 deposited reagents. Over the whole deposit, 762 (4.5%) were called active. 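Active calls include both raised and lowered p65 entry, mostly lowered; wells with fewer than 50 cells lack a z-score.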 The raw values are shown without normalisation. Entries without a mark were called inactive.

Test: 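Knock-downs that increase or decrease LPS-induced p65 nuclear translocation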 (primary screen)
Cell system: mouse RAW264.7 G9 macrophage reporter cells (GFP-p65, Tnf promoter-mCherry)
Reagents: siRNA pool against mouse genes, 100 nM
Time to read-out: 2 days siRNA transfection, then 40 min LPS before fixation
Treatment: LPS (Salmonella minnesota R595) at 10 ng/ml
Measured: 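Imaged p65 nuclear translocation ratio, normalised to the plate median, converted to robust z-scores and averaged across two replicates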
Reading the numbers: p65 translocation robust z-score: higher = more nuclear NF-kappaB p65 after LPS than the plate median; nuclear/cytoplasmic p65 ratio: higher = more nuclear NF-kappaB p65
Rule for the call: 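Active if robust z is above 3.3 (negative regulators) or below -1.56, the Tlr4 control median (positive regulators); activity score 50 or more; control wells not called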
Calls: active = hit (p65 shift raised or lowered); inactive = no clear change

For Stard5 the deposit lists p65 translocation robust z-score -0.1; nuclear/cytoplasmic p65 ratio, rep 1 = 1.48; nuclear/cytoplasmic p65 ratio, rep 2 = 1.16; low cell count flag enough cells to score. With knock-down of Tectb the results were p65 translocation robust z-score 1.66; nuclear/cytoplasmic p65 ratio, rep 1 = 1.64; nuclear/cytoplasmic p65 ratio, rep 2 = 1.32; low cell count flag enough cells to score. Against Rhox4b, the values are p65 translocation robust z-score -0.06; nuclear/cytoplasmic p65 ratio, rep 1 = 1.58; nuclear/cytoplasmic p65 ratio, rep 2 = 1.25; low cell count flag enough cells to score. Silencing of Clec12a resulted in: p65 translocation robust z-score -1.15; nuclear/cytoplasmic p65 ratio, rep 1 = 1.38; nuclear/cytoplasmic p65 ratio, rep 2 = 1.87; low cell count flag enough cells to score. Silencing of Adra2b gave: p65 translocation robust z-score 0.27; nuclear/cytoplasmic p65 ratio, rep 1 = 1.6; nuclear/cytoplasmic p65 ratio, rep 2 = 1.56; low cell count flag enough cells to score. Knock-down of Pcdhb1 came out at: nuclear/cytoplasmic p65 ratio, rep 1 = 1.18; nuclear/cytoplasmic p65 ratio, rep 2 = 1.43; low cell count flag fewer than 50 cells per well; well left out of scoring.

With knock-down of Bloc1s3, the screen gave p65 translocation robust z-score 0.43; nuclear/cytoplasmic p65 ratio, rep 1 = 1.45; nuclear/cytoplasmic p65 ratio, rep 2 = 1.58; low cell count flag enough cells to score. Mllt3 scored p65 translocation robust z-score 0.27; nuclear/cytoplasmic p65 ratio, rep 1 = 1.76; nuclear/cytoplasmic p65 ratio, rep 2 = 1.69; low cell count flag enough cells to score. Silencing of Ttbk2 came out at: nuclear/cytoplasmic p65 ratio, rep 1 = 1.53; nuclear/cytoplasmic p65 ratio, rep 2 = 1.41; low cell count flag fewer than 50 cells per well; well left out of scoring. After knock-down of Slc10a3, the record shows p65 translocation robust z-score 2.49; nuclear/cytoplasmic p65 ratio, rep 1 = 1.73; nuclear/cytoplasmic p65 ratio, rep 2 = 1.19; low cell count flag enough cells to score. After knock-down of Defb34 the results were p65 translocation robust z-score -0.05; nuclear/cytoplasmic p65 ratio, rep 1 = 1.46; nuclear/cytoplasmic p65 ratio, rep 2 = 1.65; low cell count flag enough cells to score. Against Prl6a1 the deposit lists p65 translocation robust z-score 2.35; nuclear/cytoplasmic p65 ratio, rep 1 = 1.79; nuclear/cytoplasmic p65 ratio, rep 2 = 1.39; low cell count flag enough cells to score.

9930111J21Rik2 showed p65 translocation robust z-score 1.49; nuclear/cytoplasmic p65 ratio, rep 1 = 1.64; nuclear/cytoplasmic p65 ratio, rep 2 = 1.74; low cell count flag enough cells to score. Knock-down of Prl3b1 gave: p65 translocation robust z-score 0.4; nuclear/cytoplasmic p65 ratio, rep 1 = 1.57; nuclear/cytoplasmic p65 ratio, rep 2 = 1.92; low cell count flag enough cells to score. Knock-down of Ern1 resulted in: nuclear/cytoplasmic p65 ratio, rep 1 = 1.68; nuclear/cytoplasmic p65 ratio, rep 2 = 1.26; low cell count flag fewer than 50 cells per well; well left out of scoring. Spata31d1d showed nuclear/cytoplasmic p65 ratio, rep 1 = 1.11; nuclear/cytoplasmic p65 ratio, rep 2 = 1.25; low cell count flag fewer than 50 cells per well; well left out of scoring. Against Ptdss2, the entry reads p65 translocation robust z-score -2.83 (active); nuclear/cytoplasmic p65 ratio, rep 1 = 1.01; nuclear/cytoplasmic p65 ratio, rep 2 = 1.11; low cell count flag enough cells to score. Spaca1 gave nuclear/cytoplasmic p65 ratio, rep 1 = 1.4; nuclear/cytoplasmic p65 ratio, rep 2 = 1.58; low cell count flag fewer than 50 cells per well; well left out of scoring.

Tk2 showed nuclear/cytoplasmic p65 ratio, rep 1 = 1.74; nuclear/cytoplasmic p65 ratio, rep 2 = 1.41; low cell count flag fewer than 50 cells per well; well left out of scoring. Against Polr1h the deposit lists p65 translocation robust z-score -0.7; nuclear/cytoplasmic p65 ratio, rep 1 = 1.33; nuclear/cytoplasmic p65 ratio, rep 2 = 1.16; low cell count flag enough cells to score. With knock-down of Med6, the record shows p65 translocation robust z-score -1.36; nuclear/cytoplasmic p65 ratio, rep 1 = 1.2; nuclear/cytoplasmic p65 ratio, rep 2 = 1.22; low cell count flag enough cells to score.

Laid out differently: entries from further up.
| gene symbol | p65 translocation robust z-score | nuclear/cytoplasmic p65 ratio, rep 1 | nuclear/cytoplasmic p65 ratio, rep 2 | low cell count flag |
| --- | --- | --- | --- | --- |
| Prl3b1 | 0.4 | 1.57 | 1.92 | enough cells to score |
| Ern1 | – | 1.68 | 1.26 | fewer than 50 cells per well; well left out of scoring |
| Spata31d1d | – | 1.11 | 1.25 | fewer than 50 cells per well; well left out of scoring |
